Data on three molecules can be found in publication PMC12608094, “STN1 Shields CTC1 From TRIM32‐Mediated Ubiquitination to Prevent Cellular Aging” (Aging Cell, 2025).

Sequences of proteins named here, by UniProt entry; tags and fusion partners are left off.
UniProt Q13049: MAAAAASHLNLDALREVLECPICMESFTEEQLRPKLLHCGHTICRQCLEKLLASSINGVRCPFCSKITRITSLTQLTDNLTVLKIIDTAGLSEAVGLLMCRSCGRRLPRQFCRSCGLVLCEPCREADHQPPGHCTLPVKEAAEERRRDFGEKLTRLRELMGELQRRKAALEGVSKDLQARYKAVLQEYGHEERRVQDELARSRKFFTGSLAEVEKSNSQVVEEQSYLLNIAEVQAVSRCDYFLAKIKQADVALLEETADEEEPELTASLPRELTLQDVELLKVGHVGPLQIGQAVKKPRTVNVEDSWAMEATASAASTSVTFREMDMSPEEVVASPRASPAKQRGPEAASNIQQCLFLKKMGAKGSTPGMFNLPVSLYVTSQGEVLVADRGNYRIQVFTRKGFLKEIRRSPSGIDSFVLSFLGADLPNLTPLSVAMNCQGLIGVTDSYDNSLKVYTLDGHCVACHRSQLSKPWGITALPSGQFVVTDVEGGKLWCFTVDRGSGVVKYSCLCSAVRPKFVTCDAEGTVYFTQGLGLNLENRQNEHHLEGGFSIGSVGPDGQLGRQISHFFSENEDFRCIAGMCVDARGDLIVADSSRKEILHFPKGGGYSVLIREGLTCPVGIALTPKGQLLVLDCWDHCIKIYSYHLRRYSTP

This experiment concerns the target T1, Flag-tagged CTC1 (wild type) (human, UniProt Q2NKJ3 1-1217).
T1 sequence (looked up): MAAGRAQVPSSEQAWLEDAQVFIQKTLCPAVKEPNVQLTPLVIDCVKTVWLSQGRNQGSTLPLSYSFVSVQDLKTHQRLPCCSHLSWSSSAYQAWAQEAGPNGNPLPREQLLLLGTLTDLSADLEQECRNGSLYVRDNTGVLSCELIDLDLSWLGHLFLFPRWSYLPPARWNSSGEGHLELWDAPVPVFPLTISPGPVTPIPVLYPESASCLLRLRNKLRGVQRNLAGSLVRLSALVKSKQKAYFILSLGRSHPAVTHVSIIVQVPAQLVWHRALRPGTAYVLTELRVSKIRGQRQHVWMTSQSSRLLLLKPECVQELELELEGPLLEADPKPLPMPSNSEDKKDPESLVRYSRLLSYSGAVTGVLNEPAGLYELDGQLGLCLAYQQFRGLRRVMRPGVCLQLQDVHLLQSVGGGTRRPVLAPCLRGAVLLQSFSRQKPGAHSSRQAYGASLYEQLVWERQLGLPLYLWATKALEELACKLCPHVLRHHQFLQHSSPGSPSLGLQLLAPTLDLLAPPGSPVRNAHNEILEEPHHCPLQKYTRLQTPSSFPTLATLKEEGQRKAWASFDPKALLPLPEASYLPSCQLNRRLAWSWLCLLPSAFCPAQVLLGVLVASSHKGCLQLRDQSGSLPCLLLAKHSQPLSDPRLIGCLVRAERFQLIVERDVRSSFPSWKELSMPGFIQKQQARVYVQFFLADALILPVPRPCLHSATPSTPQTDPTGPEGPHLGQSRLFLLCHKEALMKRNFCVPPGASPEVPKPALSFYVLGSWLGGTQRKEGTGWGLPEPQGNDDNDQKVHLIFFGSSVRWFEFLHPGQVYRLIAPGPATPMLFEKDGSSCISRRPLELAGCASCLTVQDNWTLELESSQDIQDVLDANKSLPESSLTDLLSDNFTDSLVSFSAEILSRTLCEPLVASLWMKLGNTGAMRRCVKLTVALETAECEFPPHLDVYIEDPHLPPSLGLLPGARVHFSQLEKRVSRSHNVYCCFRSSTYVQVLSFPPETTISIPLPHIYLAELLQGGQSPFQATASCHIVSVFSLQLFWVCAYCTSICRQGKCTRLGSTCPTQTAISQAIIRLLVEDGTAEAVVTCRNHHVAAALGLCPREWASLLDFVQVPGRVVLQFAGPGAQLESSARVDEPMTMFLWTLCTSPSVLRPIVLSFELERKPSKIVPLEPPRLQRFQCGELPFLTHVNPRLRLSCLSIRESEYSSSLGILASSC
Briefly: affinity purification with mass spectrometry; Flag-IP products from cells expressing Flag-CTC1 (HEK293T by the methods, HCT116 by the legend of Figure 3a), LC-MS/MS.

These are yes or no findings as the source states them, for the method shown. Binding seen in cells or lysates may run through a third protein. A yes stands for co-enrichment or nearness to the bait. Other partners may have been found. Sequences can lack the tags named with a protein.

As for “TRIM32 (endogenous, found with Flag-CTC1) (from UniProt Q13049 1-653) (enzyme)”, the binding result is reported as “binds”.

B1: TEN1 (endogenous, found with Flag-CTC1) (protein, UniProt Q86WV5 1-123)
chain: MMLPKPGTYYLPWEVSAGQVPDGSTLRTFGRLCLYDMIQSRVTLMAQHGSDQHQVLVCTKLVEPFHAQVGSLYIVLGELQHQQDRGSVVKARVLTCVEGMNLPLLEQAIREQRLYKQERGGSQ
As to B1, the binding entry is recorded as “binds”.

B2: HA-tagged STN1 (wild type) (natural protein, human, UniProt Q9H668 1-368, looked up)
chain: MQPGSSRCEEETPSLLWGLDPVFLAFAKLYIRDILDMKESRQVPGVFLYNGHPIKQVDVLGTVIGVRERDAFYSYGVDDSTGVINCICWKKLNTESVSAAPSAARELSLTSQLKKLQETIEQKTKIEIGDTIRVRGSIRTYREEREIHATTYYKVDDPVWNIQIARMLELPTIYRKVYDQPFHSSALEKEEALSNPGALDLPSLTSLLSEKAKEFLMENRVQSFYQQELEMVESLLSLANQPVIHSASSDQVNFKKDTTSKAIHSIFKNAIQLLQEKGLVFQKDDGFDNLYYVTREDKDLHRKIHRIIQQDCQKPNHMEKGCHFLHILACARLSIRPGLSEAVLQQVLELLEDQSDIVSTMEHYYTAF
In the case of B2, the binding result was “binds”.
